# Test results published in the supplement of paper PMC8728848.
# The list shows a part of the results.
# B1: pullulanase (Streptococcus pyogenes), Q8KLP1 (protein)
# chain: MKKKVNQGSKRYQYLLKKWGIGFVIAATGTVMLGCIPSILTHQVAAKTIVGLARDEAQQGDGNAKSGDGFQSSSKEAKPVLDSSSANPASIAEHHLRMHFKTLPAGESLGSLGLWVWGDVDQPSKDWPNGAITMTKAKKDDYGYYLDVPLAAKHRQQVSYLINNKAGENLSKDQHIPLLTPKMNEVWIDENYHAHAYRPLKKGYLRINYHNQSGHYDNLAVWTFKDVKTPTTDWPNGLDLSHKGPYGAYVDVPLKEGANEIGFLILDKSKTGDAIKVQPKDYLFKELDNHTQVFVKDTDPKVYNNPYYIDQVSLKGAEQTTPNEIKAIFTTLDGLDEDAVKQNIKITDKAGKTVAIDELTLDKDKSVMTLKGDFKAQGAVYTVTFGEVSQVARQSWQLKDKLYAYDGELGATLAKDGSVDLALWSPSADSVKVVVYDKQDQTKVVGQADLTKSDKGVWRAHLTSDSVKGISDYTGYYYLYEITRGQEKVMVLDPYAKSLAAWNDATATDDIKTAKAAFIDPSKLGPTGLDFAKINNFKKREDAIIYEAHVRDFTSDKALEGKLTHPFGTFSAFVEQLDYLKDLGVTHVQLLPVLSYFYANELDKTRSTAYTSSDNNYNWGYDPQHYFALSGMYSANPNDPALRIAELKNLVNEIHKRGMGVIFDVVYNHTARTYLFEDLEPNYYHFMNADGTARESFGGGRLGTTHAMSRRILVDSITYLTREFKVDGFRFDMMGDHDAAAIEQAFKAAKAINPNTIMIGEGWRTYQGDEGKKEIAADQDWMKATNTVGVFSDDIRNTLKSGFPNEGTAAFITGGAKNLEGLFKTIKAQPSNFEADAPGDVVQYIAAHDNLTLHDVIAKSINKDPKVAEEEIHKRIRLGNTMILTAQGTAFIHSGQEYGRTKQLLNPDYKTKVSDDKVPNKATLIDAVAQYPYFIHDSYDSSDAVNHFDWAKATDSIAHPISNQTKAYTQGLIALRRSTDAFTKATKAEVDRDVTLITQAGQDGIQQEDLIMGYQTVASNGDRYAVFVNADNKTRKVVLPQAYRYLLGAQVLADAEQVGVTAIAKPKGVQFTKEGLTIDGLTALVLKVSSKTANPSQQKSQTDNHQTKTPDGSKDLDKSLMTRPKRAKTNQKLPKTGEAPSKGLLAAGVALLLLAISLLMKRQKD
# Legend:
# Assay in all cases: glycan array binding signal (z-score within array); higher = stronger binding
# Settings in all cases: glycan notation: IUPAC condensed, linker removed
# [1] = target: Neu5Ac(a2-3)Gal(b1-4)GlcNAc(b1-2)Man(a1-3)[GlcNAc(b1-2)Man(b1-4)GlcNAc(b1-2)Man(a1-6)]Man(b1-4)GlcNAc(b1-4)GlcNAc
# How it was run: (§1)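 Glycan array binding is given as a within-array Z-score, which can be read as non-binding when negative. The arrays, 3228 of them, came from the Consortium for Functional Glycomics database and were retained only where the protein sequence was available. Z-scores were averaged across arrays of the same protein sequence at different concentrations or buffers and across linkers.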
# [2] = target: Neu5Ac(a2-3)Gal(b1-4)GlcNAc(b1-2)Man(a1-3)[Neu5Ac(a2-6)Gal(b1-4)GlcNAc(b1-2)Man(a1-6)]Man(b1-4)GlcNAc(b1-4)GlcNAc
# How it was run: as §1
# [3] = target: Neu5Ac(a2-3)Gal(b1-4)GlcNAc(b1-3)Gal
# How it was run: as §1
# [4] = target: Neu5Ac(a2-3)Gal(b1-4)GlcNAc(b1-3)Gal(b1-3)GlcNAc
# How it was run: as §1
# [5] = target: Neu5Ac(a2-3)Gal(b1-4)GlcNAc(b1-3)Gal(b1-4)GlcNAc
# How it was run: as §1
# [6] = target: Neu5Ac(a2-3)Gal(b1-4)GlcNAc(b1-3)Gal(b1-4)GlcNAc(b1-3)Gal(b1-4)GlcNAc
# How it was run: as §1
# [7] = target: Neu5Ac(a2-3)Gal(b1-4)GlcNAc(b1-3)Gal(b1-4)[Fuc(a1-3)]GlcNAc
# How it was run: as §1
# [8] = target: Neu5Ac(a2-3)Gal(b1-4)GlcNAc(b1-3)GalNAc
# How it was run: as §1
# [9] = target: Neu5Ac(a2-3)Gal(b1-4)GlcNAc(b1-6)[Gal(b1-3)]GalNAc
# How it was run: as §1
# [10] = target: Neu5Ac(a2-3)Gal(b1-4)GlcNAc(b1-6)[Neu5Ac(a2-3)Gal(b1-3)]GalNAc
# How it was run: as §1
# [11] = target: Neu5Ac(a2-3)Gal(b1-4)GlcNAc6S
# How it was run: as §1
# [12] = target: Neu5Ac(a2-3)Gal(b1-4)[Fuc(a1-3)]GlcNAc
# How it was run: as §1
# [13] = target: Neu5Ac(a2-3)Gal(b1-4)[Fuc(a1-3)]GlcNAc(b1-3)Gal
# How it was run: as §1
# [14] = target: Neu5Ac(a2-3)Gal(b1-4)[Fuc(a1-3)]GlcNAc(b1-3)Gal(b1-4)GlcNAc
# How it was run: as §1
# [15] = target: Neu5Ac(a2-3)Gal(b1-4)[Fuc(a1-3)]GlcNAc(b1-3)Gal(b1-4)[Fuc(a1-3)]GlcNAc(b1-3)Gal(b1-4)[Fuc(a1-3)]GlcNAc
# How it was run: as §1
# [16] = target: Neu5Ac(a2-3)Gal(b1-4)[Fuc(a1-3)]GlcNAc(b1-3)GalNAc
# How it was run: as §1
# [17] = target: Neu5Ac(a2-3)Gal(b1-4)[Fuc(a1-3)]GlcNAc(b1-6)[Gal(b1-3)]GalNAc
# How it was run: as §1
# [18] = target: Neu5Ac(a2-3)Gal(b1-4)[Fuc(a1-3)]GlcNAc(b1-6)[Neu5Ac(a2-3)Gal(b1-3)]GalNAc
# How it was run: as §1
# [19] = target: Neu5Ac(a2-3)Gal(b1-4)[Fuc(a1-3)]GlcNAc6S
# How it was run: as §1
# [20] = target: Neu5Ac(a2-3)Gal6S(b1-4)GlcNAc
# How it was run: as §1
# [21] = target: Neu5Ac(a2-3)Gal6S(b1-4)[Fuc(a1-3)]GlcNAc
# How it was run: as §1
# Neu5Ac(a2-3)GalNAc = target: Neu5Ac(a2-3)GalNAc
# How it was run: as §1
# [22] = target: Neu5Ac(a2-3)GalNAc(b1-4)GlcNAc
# How it was run: as §1
# [23] = target: Neu5Ac(a2-3)[GalNAc(b1-4)]Gal(b1-4)Glc
# How it was run: as §1
# [24] = target: Neu5Ac(a2-3)[GalNAc(b1-4)]Gal(b1-4)GlcNAc
# How it was run: as §1
# [25] = target: Neu5Ac(a2-3)[GalNAc(b1-4)]Gal(b1-4)GlcNAc(b1-3)GalNAc
# How it was run: as §1
# [26] = target: Neu5Ac(a2-3)[Neu5Ac(a2-6)]GalNAc
# How it was run: as §1
# Neu5Ac(a2-6)Gal = target: Neu5Ac(a2-6)Gal
# How it was run: as §1
# [27] = target: Neu5Ac(a2-6)Gal(b1-3)GlcNAc(b1-3)[Gal(b1-4)GlcNAc(b1-6)]Gal(b1-4)Glc
# How it was run: as §1
# Neu5Ac(a2-6)Gal(b1-4)Glc = target: Neu5Ac(a2-6)Gal(b1-4)Glc
# How it was run: as §1
# [28] = target: Neu5Ac(a2-6)Gal(b1-4)GlcNAc
# How it was run: as §1
# [29] = target: Neu5Ac(a2-6)Gal(b1-4)GlcNAc(b1-2)Man(a1-3)Man(b1-4)GlcNAc(b1-4)GlcNAc
# How it was run: as §1
# [30] = target: Neu5Ac(a2-6)Gal(b1-4)GlcNAc(b1-2)Man(a1-3)[Gal(b1-4)GlcNAc(b1-2)Man(a1-6)]Man(b1-4)GlcNAc(b1-4)GlcNAc
# How it was run: as §1
# [31] = target: Neu5Ac(a2-6)Gal(b1-4)GlcNAc(b1-2)Man(a1-3)[GlcNAc(b1-2)Man(a1-6)]Man(b1-4)GlcNAc(b1-4)GlcNAc
# How it was run: as §1
# [32] = target: Neu5Ac(a2-6)Gal(b1-4)GlcNAc(b1-2)Man(a1-3)[GlcNAc(b1-2)Man(b1-4)GlcNAc(b1-2)Man(a1-6)]Man(b1-4)GlcNAc(b1-4)GlcNAc
# How it was run: as §1
# [33] = target: Neu5Ac(a2-6)Gal(b1-4)GlcNAc(b1-2)Man(a1-3)[Man(a1-6)]Man(b1-4)GlcNAc(b1-4)GlcNAc
# How it was run: as §1
# [34] = target: Neu5Ac(a2-6)Gal(b1-4)GlcNAc(b1-2)Man(a1-3)[Neu5Ac(a2-6)Gal(b1-4)GlcNAc(b1-2)Man(a1-6)]Man(b1-4)GlcNAc(b1-4)GlcNAc
# How it was run: as §1
# [35] = target: Neu5Ac(a2-6)Gal(b1-4)GlcNAc(b1-2)Man(a1-6)Man(b1-4)GlcNAc(b1-4)GlcNAc
# How it was run: as §1
# [36] = target: Neu5Ac(a2-6)Gal(b1-4)GlcNAc(b1-2)Man(a1-6)[Gal(b1-4)GlcNAc(b1-2)Man(a1-3)]Man(b1-4)GlcNAc(b1-4)GlcNAc
# How it was run: as §1
# [37] = target: Neu5Ac(a2-6)Gal(b1-4)GlcNAc(b1-2)Man(a1-6)[GlcNAc(b1-2)Man(a1-3)]Man(b1-4)GlcNAc(b1-4)GlcNAc
# How it was run: as §1
# [38] = target: Neu5Ac(a2-6)Gal(b1-4)GlcNAc(b1-2)Man(a1-6)[Man(a1-3)]Man(b1-4)GlcNAc(b1-4)GlcNAc
# How it was run: as §1
# [39] = target: Neu5Ac(a2-6)Gal(b1-4)GlcNAc(b1-3)Gal(b1-3)GlcNAc
# How it was run: as §1
# [40] = target: Neu5Ac(a2-6)Gal(b1-4)GlcNAc(b1-3)Gal(b1-4)GlcNAc
# How it was run: as §1
# [41] = target: Neu5Ac(a2-6)Gal(b1-4)GlcNAc(b1-3)Gal(b1-4)GlcNAc(b1-3)Gal(b1-4)GlcNAc
# How it was run: as §1
# [42] = target: Neu5Ac(a2-6)Gal(b1-4)GlcNAc(b1-3)Gal(b1-4)[Fuc(a1-3)]GlcNAc(b1-3)Gal(b1-4)[Fuc(a1-3)]GlcNAc
# How it was run: as §1
binder,measurement,setting,value
B1,glycan array binding signal (z-score),[1],-0.652
same,glycan array binding signal (z-score),[2],0.569
same,glycan array binding signal (z-score),[3],-1.05
same,glycan array binding signal (z-score),[4],-0.862
same,glycan array binding signal (z-score),[5],1.61
same,glycan array binding signal (z-score),[6],-0.129
same,glycan array binding signal (z-score),[7],0.645
same,glycan array binding signal (z-score),[8],-0.432
same,glycan array binding signal (z-score),[9],-1.67
same,glycan array binding signal (z-score),[10],0.258
same,glycan array binding signal (z-score),[11],0.02
same,glycan array binding signal (z-score),[12],-0.881
same,glycan array binding signal (z-score),[13],0.15
same,glycan array binding signal (z-score),[14],-0.151
same,glycan array binding signal (z-score),[15],-0.078
same,glycan array binding signal (z-score),[16],2.87
same,glycan array binding signal (z-score),[17],1.57
same,glycan array binding signal (z-score),[18],-0.187
same,glycan array binding signal (z-score),[19],0.014
same,glycan array binding signal (z-score),[20],-0.777
same,glycan array binding signal (z-score),[21],-0.751
same,glycan array binding signal (z-score),Neu5Ac(a2-3)GalNAc,0.308
same,glycan array binding signal (z-score),[22],-1.38
same,glycan array binding signal (z-score),[23],1.41
same,glycan array binding signal (z-score),[24],-0.879
same,glycan array binding signal (z-score),[25],-1.29
same,glycan array binding signal (z-score),[26],-0.215
same,glycan array binding signal (z-score),Neu5Ac(a2-6)Gal,2.44
same,glycan array binding signal (z-score),[27],-1.49
same,glycan array binding signal (z-score),Neu5Ac(a2-6)Gal(b1-4)Glc,1.43
same,glycan array binding signal (z-score),[28],2.52
same,glycan array binding signal (z-score),[29],-1.49
same,glycan array binding signal (z-score),[30],1.12
same,glycan array binding signal (z-score),[31],0.206
same,glycan array binding signal (z-score),[32],0.099
same,glycan array binding signal (z-score),[33],-1.07
same,glycan array binding signal (z-score),[34],0.41
same,glycan array binding signal (z-score),[35],-1.2
same,glycan array binding signal (z-score),[36],-1.02
same,glycan array binding signal (z-score),[37],1.49
same,glycan array binding signal (z-score),[38],-0.542
same,glycan array binding signal (z-score),[39],-0.657
same,glycan array binding signal (z-score),[40],-0.052
same,glycan array binding signal (z-score),[41],0.583
same,glycan array binding signal (z-score),[42],-0.115

# Looked up one by one from the list above:
binder,measurement,setting,value
B1,glycan array binding signal (z-score),[40],-0.052
same,glycan array binding signal (z-score),[20],-0.777
